PubChem BioAssay AID1259254, NCATS, 2017
Shown is one part, drawn at random, of about 59,000 reagents tested. Of all reagents, about 1,550 (2.6%) were called active. 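G2 share is only a proxy for re-replication; each gene was hit by three separate siRNAs, and active genes were retested.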 The numbers tell different reagents against one gene apart. Not all columns of the deposit are shown. Not stated in the record: the amount of reagent.

Aim: 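Gene knock-downs that lead to re-replication, shown by excess G2 DNA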 (primary screen)
Cell system: human HCT116 colorectal cancer cells
Reagents: single siRNA against human genes
Time to read-out: 3 days
Measurement: 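Imaged Hoechst DNA stain sorts each cell into a cycle phase by DNA amount; per plate, G2 fraction set to 0% for non-targeting and 100% for GMNN siRNA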
Scale: G2 robust z-score and G2 cells, % of GMNN control: higher = more G2 cells, more excess DNA replication
Active means: 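Active siRNAs have a G2 robust z of 5 or more median absolute deviations over the median, which in these data means about 38% or higher of GMNN control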

For ZNF30 (GeneID 90075) #1, the entry reads G2 robust z-score -0.174; G2 cells, % of GMNN control 1.75; inactive.
ZNF30 (GeneID 90075) #2 scored G2 robust z-score -0.369; G2 cells, % of GMNN control 0.37; inactive.
Knock-down of ZNF30 (GeneID 90075) #3 gave: G2 robust z-score 0.977; G2 cells, % of GMNN control 9.84; inactive.
Depletion of DTWD1 (GeneID 56986) #1 gave: G2 robust z-score -0.767; G2 cells, % of GMNN control -2.43; inactive.
With knock-down of DTWD1 (GeneID 56986) #2, the screen gave G2 robust z-score 0.279; G2 cells, % of GMNN control 4.93; inactive.
With knock-down of DTWD1 (GeneID 56986) #3, the screen gave G2 robust z-score -0.639; G2 cells, % of GMNN control -1.53; inactive.
COMMD7 (GeneID 149951) #1 showed G2 robust z-score 1.71; G2 cells, % of GMNN control 15; inactive.
For COMMD7 (GeneID 149951) #2, the entry reads G2 robust z-score 1.28; G2 cells, % of GMNN control 12; inactive.
With knock-down of COMMD7 (GeneID 149951) #3 the results were G2 robust z-score -0.00611; G2 cells, % of GMNN control 2.92; inactive.
With knock-down of PTN (GeneID 5764) #1, the record shows G2 robust z-score -0.255; G2 cells, % of GMNN control 1.17; inactive.
PTN (GeneID 5764) #2 gave G2 robust z-score 1.12; G2 cells, % of GMNN control 10.9; inactive.
Silencing of PTN (GeneID 5764) #3 gave: G2 robust z-score 1.35; G2 cells, % of GMNN control 12.4; inactive.
For DAAM1 (GeneID 23002) #1, the entry reads G2 robust z-score -0.871; G2 cells, % of GMNN control -3.16; inactive.
Knock-down of DAAM1 (GeneID 23002) #2 came out at: G2 robust z-score -0.42; G2 cells, % of GMNN control 0.0114; inactive.
With knock-down of DAAM1 (GeneID 23002) #3, the record shows G2 robust z-score 2.84; G2 cells, % of GMNN control 23; inactive.

Part of the list above, reformatted.
DTWD1 (GeneID 56986) #1
- G2 robust z-score: -0.767
- G2 cells, % of GMNN control: -2.43
- outcome: inactive

DTWD1 (GeneID 56986) #2
- G2 robust z-score: 0.279
- G2 cells, % of GMNN control: 4.93
- outcome: inactive

DTWD1 (GeneID 56986) #3
- G2 robust z-score: -0.639
- G2 cells, % of GMNN control: -1.53
- outcome: inactive

The list goes on.
PRR33 (GeneID 102724536) #1 scored G2 robust z-score 1.06; G2 cells, % of GMNN control 10.5; inactive.
Knock-down of PRR33 (GeneID 102724536) #2 came out at: G2 robust z-score 0.904; G2 cells, % of GMNN control 9.33; inactive.
PRR33 (GeneID 102724536) #3 gave G2 robust z-score -0.081; G2 cells, % of GMNN control 2.4; inactive.
With knock-down of RLN3 (GeneID 117579) #1, the record shows G2 robust z-score -0.49; G2 cells, % of GMNN control -0.478; inactive.
With knock-down of RLN3 (GeneID 117579) #2, the screen gave G2 robust z-score 1.43; G2 cells, % of GMNN control 13; inactive.
After knock-down of RLN3 (GeneID 117579) #3, the screen gave G2 robust z-score -0.55; G2 cells, % of GMNN control -0.903; inactive.
Knock-down of ST14 (GeneID 6768) #1 resulted in: G2 robust z-score 0.656; G2 cells, % of GMNN control 7.58; inactive.
Knock-down of ST14 (GeneID 6768) #2 came out at: G2 robust z-score -1.45; G2 cells, % of GMNN control -7.21; inactive.
With knock-down of ST14 (GeneID 6768) #3, the screen gave G2 robust z-score -0.311; G2 cells, % of GMNN control 0.781; inactive.
